# Data published in the supplement of paper PMC4604168 (melanoma cell lines).
# The list shows a part of the results. Repeats are few or missing, and single values can be far off.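 Imaging used 1,536-well plates; nuclei positive for cleaved PARP by antibody were divided by total DNA-stained nuclei to yield the apoptosis fraction. Doses for screening kept most cells viable, and cell lines differ markedly in resting and induced cleaved-PARP levels.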
# Test system: CBRC017 (line from a melanoma biopsy)
# Experiment: cleaved PARP positive nuclei fraction relative to DMSO control; melanoma cells; higher = more apoptosis
# Details: library dose: low library concentration; 72 h
row,SMILES,cleaved PARP positive nuclei fraction
1,"COCC[n+]1c2c(n(Cc3cnccn3)c1C)C(=O)c1ccccc1C2=O + Cc1cc(SCc2sc(-c3ccc(C(F)(F)F)c(F)c3)nc2C)ccc1OCC(=O)O [GW0742] (first compound 0.0004 µM, partner dose 2 µM)",190%
2,"COc1cc(N2CCC(N3CCN(C)CC3)CC2)ccc1Nc1ncc(Cl)c(Nc2ccccc2S(=O)(=O)C(C)C)n1 + O=C(Oc1ccc([N+](=O)[O-])cc1)N1CCC(C(O)(c2ccc3c(c2)OCO3)c2ccc3c(c2)OCO3)CC1 [JZL184] (first compound 0.08 µM, partner dose 1 µM)",90.8%
3,"NCC(=O)Nc1ccc(-n2nc(C(F)(F)F)cc2-c2ccc3c(ccc4ccccc43)c2)cc1 + Cc1cc(SCc2sc(-c3ccc(C(F)(F)F)c(F)c3)nc2C)ccc1OCC(=O)O [GW0742] (first compound 1 µM, partner dose 2 µM)",69.7%
4,"C/C(O)=C(\C#N)C(=O)Nc1cc(Br)ccc1Br + Cn1cc(/C=C2\C(=O)Nc3cccnc32)c2ccccc21 [GW441756] (first compound 2 µM, partner dose 0.4 µM)",90.5%
5,"C[As](C)SC[C@H](NC(=O)CC[C@H](N)C(=O)O)C(=O)NCC(=O)O [Darinaparsin] + c1cc(-c2cnn3cc(-c4ccc(OCCN5CCCCC5)cc4)cnc23)ccn1 [Dorsomorphin] (first compound 0.4 µM, partner dose 0.4 µM)",35.7%
6,"CCc1ccc(CCOc2ccc(CC3SC(=O)NC3=O)cc2)nc1 (stereo not drawn) [pioglitazone] + C/C(O)=C(\C#N)C(=O)Nc1cc(Br)ccc1Br [LFM-A13] (first compound 2 µM, partner dose 2 µM)",80%
7,"Nc1cccc2c1CN(C1CCC(=O)NC1=O)C2=O (stereo not drawn) [lenalidomide] + Cc1cc(SCc2sc(-c3ccc(C(F)(F)F)c(F)c3)nc2C)ccc1OCC(=O)O [GW0742] (first compound 1 µM, partner dose 2 µM)",68.6%
8,"Cc1cc(SCc2sc(-c3ccc(C(F)(F)F)c(F)c3)nc2C)ccc1OCC(=O)O + CC(C)CCN1c2nc(Nc3cc(F)c(O)c(F)c3)ncc2N(C)C(=O)C1C [BID1870] (first compound 2 µM, partner dose 0.2 µM)",114%
9,"C[As](C)SC[C@H](NC(=O)CC[C@H](N)C(=O)O)C(=O)NCC(=O)O [Darinaparsin] + COc1cc2ncnc(Nc3ccc(Oc4ccccc4)cc3)c2cc1OC [SrcI1] (first compound 0.4 µM, partner dose 2 µM)",80%
10,"COc1ccc(-c2ccc3c(N4CCOCC4)nc(N4C[C@@H](C)O[C@@H](C)C4)nc3n2)cc1CO + Cc1cc(SCc2sc(-c3ccc(C(F)(F)F)c(F)c3)nc2C)ccc1OCC(=O)O [GW0742] (first compound 0.02 µM, partner dose 2 µM)",107%
11,"O=S(=O)(c1ccccc1)N(CC(F)(F)F)c1ccc(C(O)(C(F)(F)F)C(F)(F)F)cc1 + C/C(O)=C(\C#N)C(=O)Nc1cc(Br)ccc1Br [LFM-A13] (first compound 1.4 µM, partner dose 2 µM)",44.4%
12,"O=C(O)c1ccc(-c2c[nH]c3ncc(-c4ccccc4)cc23)cc1C1CCCC1 + O=C(Oc1ccc([N+](=O)[O-])cc1)N1CCC(C(O)(c2ccc3c(c2)OCO3)c2ccc3c(c2)OCO3)CC1 [JZL184] (first compound 0.16 µM, partner dose 1 µM)",114%
13,"Cn1nnc2c(C(N)=O)ncn2c1=O [temozolomide] + O=C(Oc1ccc([N+](=O)[O-])cc1)N1CCC(C(O)(c2ccc3c(c2)OCO3)c2ccc3c(c2)OCO3)CC1 [JZL184] (first compound 2 µM, partner dose 1 µM)",44.3%
14,"Cc1cc(SCc2sc(-c3ccc(C(F)(F)F)c(F)c3)nc2C)ccc1OCC(=O)O + COc1cc(N2CCC(N3CCN(C)CC3)CC2)ccc1Nc1ncc(Cl)c(Nc2ccccc2S(=O)(=O)C(C)C)n1 [NVP-TAE684] (first compound 2 µM, partner dose 0.08 µM)",97%
15,"CCN(CC)CCCCNc1ncc2cc(-c3cc(OC)cc(OC)c3)c(NC(=O)NC(C)(C)C)nc2n1 + C/C(O)=C(\C#N)C(=O)Nc1cc(Br)ccc1Br [LFM-A13] (first compound 0.1 µM, partner dose 2 µM)",73.1%
16,"CN(NC(=O)CC(=O)NN(C)C(=S)c1ccccc1)C(=S)c1ccccc1 + C/C(O)=C(\C#N)C(=O)Nc1cc(Br)ccc1Br [LFM-A13] (first compound 0.006 µM, partner dose 2 µM)",188%
17,"CCN(CC)CCCCNc1ncc2cc(-c3cc(OC)cc(OC)c3)c(NC(=O)NC(C)(C)C)nc2n1 + Cc1cc(SCc2sc(-c3ccc(C(F)(F)F)c(F)c3)nc2C)ccc1OCC(=O)O [GW0742] (first compound 0.1 µM, partner dose 2 µM)",152%
18,"Cc1cc(SCc2sc(-c3ccc(C(F)(F)F)c(F)c3)nc2C)ccc1OCC(=O)O + Cn1cc(/C=C2\C(=O)Nc3cccnc32)c2ccccc21 [GW441756] (first compound 2 µM, partner dose 0.4 µM)",235%
19,"CCN(CC)CCCCNc1ncc2cc(-c3cc(OC)cc(OC)c3)c(NC(=O)NC(C)(C)C)nc2n1 + O=C(Oc1ccc([N+](=O)[O-])cc1)N1CCC(C(O)(c2ccc3c(c2)OCO3)c2ccc3c(c2)OCO3)CC1 [JZL184] (first compound 0.1 µM, partner dose 1 µM)",69.7%
20,"O=C(Nc1ccccc1)c1cc([N+](=O)[O-])ccc1Cl + O=C(Oc1ccc([N+](=O)[O-])cc1)N1CCC(C(O)(c2ccc3c(c2)OCO3)c2ccc3c(c2)OCO3)CC1 [JZL184] (first compound 2 µM, partner dose 1 µM)",83.3%
21,"Oc1nc(-c2ccc(C(F)(F)F)cc2)nc2c1CSCC2 + O=C(Oc1ccc([N+](=O)[O-])cc1)N1CCC(C(O)(c2ccc3c(c2)OCO3)c2ccc3c(c2)OCO3)CC1 [JZL184] (first compound 2 µM, partner dose 1 µM)",78.3%
22,"C[As](C)SC[C@H](NC(=O)CC[C@H](N)C(=O)O)C(=O)NCC(=O)O [Darinaparsin] + O=c1cc(-c2cccc3c2Sc2ccccc2S3)oc(N2CCOCC2)c1 [KU55933] (first compound 0.4 µM, partner dose 1 µM)",115%
23,"C[As](C)SC[C@H](NC(=O)CC[C@H](N)C(=O)O)C(=O)NCC(=O)O [Darinaparsin] + O=C(O)C(=O)Nc1sc2c(c1C(=O)O)CCNC2 [TCS401] (first compound 0.4 µM, partner dose 1.66667 µM)",173%

# Some of the entries above, set out differently.
row	SMILES	cleaved PARP positive nuclei fraction
12	O=C(O)c1ccc(-c2c[nH]c3ncc(-c4ccccc4)cc23)cc1C1CCCC1 + O=C(Oc1ccc([N+](=O)[O-])cc1)N1CCC(C(O)(c2ccc3c(c2)OCO3)c2ccc3c(c2)OCO3)CC1 [JZL184] (first compound 0.16 µM, partner dose 1 µM)	114%
13	Cn1nnc2c(C(N)=O)ncn2c1=O [temozolomide] + O=C(Oc1ccc([N+](=O)[O-])cc1)N1CCC(C(O)(c2ccc3c(c2)OCO3)c2ccc3c(c2)OCO3)CC1 [JZL184] (first compound 2 µM, partner dose 1 µM)	44.3%
